## Library screen at single concentrations

Amino acid sequences for entries named in this document (tags omitted). Residues count along the entry.
UniProt Q4DA54, 1-478: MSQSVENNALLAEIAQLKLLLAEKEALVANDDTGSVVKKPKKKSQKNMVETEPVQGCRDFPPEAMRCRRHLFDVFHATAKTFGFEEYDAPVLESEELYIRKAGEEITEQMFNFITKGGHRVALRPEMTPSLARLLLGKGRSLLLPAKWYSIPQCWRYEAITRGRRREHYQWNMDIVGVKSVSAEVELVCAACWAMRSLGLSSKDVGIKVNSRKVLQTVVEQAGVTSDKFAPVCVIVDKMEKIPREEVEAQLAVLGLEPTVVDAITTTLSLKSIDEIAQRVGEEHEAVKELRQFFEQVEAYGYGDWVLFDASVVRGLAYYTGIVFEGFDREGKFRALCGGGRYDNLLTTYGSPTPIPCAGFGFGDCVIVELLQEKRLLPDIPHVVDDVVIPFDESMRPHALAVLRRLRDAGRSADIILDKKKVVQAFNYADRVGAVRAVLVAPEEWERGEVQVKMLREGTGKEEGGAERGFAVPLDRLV

Data taken from ChEMBL document CHEMBL3988442, “University of Dundee, Small-Polar-MMV Screening Library” (2021).

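Enzyme assay of histidyl-tRNA synthetase; the read-out is not stated. Target: Histidine-tRNA ligase, Trypanosoma cruzi CL Brener (UniProt Q4DA54). Compounds at 30 µM. The record gives no direction; compounds that gave an IC50 in retests scored well above the rest, so higher reads as stronger inhibition. Of about 69,000 compounds tested this way, about 31 (0.045%) reached 50% or more in at least one test.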

Each number is a percent effect as filed.
The record does not define 0% and 100%; most values in the screen are far below 50% and negative numbers occur (in some assays of this library far below -100).
The compounds are a random part of those screened.

{"compound": "COc1ccc(CN2CCN(c3ncc(Cl)cn3)CC2)cc1", "Percent Effect": 2.469}
{"compound": "CCOCCCNc1nc(CS(=O)(=O)c2ccccc2)cs1", "Percent Effect": 3.448}
{"compound": "COc1ccc(CCNC(=O)C(C)Nc2cc(C)ccc2C)cc1", "stereo": "stereo not given", "Percent Effect": 6.667}
{"compound": "Cc1nc(C)n(CC2CCCN2Cc2cccc3c2OCCO3)n1", "stereo": "stereo not given", "Percent Effect": 4.624}
{"compound": "CN(Cc1nnc(-c2cccs2)o1)C(C(N)=O)c1cccc(F)c1", "stereo": "stereo not given", "Percent Effect": 10.98}
{"compound": "Cc1noc(Cl)c1CCC(=O)N1CCN(Cc2ccncc2)CC1", "Percent Effect": 2.312}
{"compound": "CC(NCC1CCN(CCO)CC1)c1ccc(OC(F)(F)F)cc1", "stereo": "stereo not given", "Percent Effect": 9.836}
{"compound": "N#Cc1cccc(NC2CC(=O)N(CCCc3ccccc3)C2)n1", "stereo": "stereo not given", "Percent Effect": 2.89}
{"compound": "COc1ccc(C(=O)N2CC(c3ccncc3)C2)c(OC)c1OC", "Percent Effect": 3.571}
{"compound": "COc1cccc(OC2CN(C(=O)c3ccoc3C)C2)c1", "Percent Effect": 1.554}
{"compound": "Cc1ccc(C)c(CN(CC(N)=O)C(C)C)c1", "Percent Effect": 6.077}
{"compound": "Cc1cc(N2CCC(c3nccn3Cc3cscn3)CC2)ccn1", "Percent Effect": 8.939}
{"compound": "CCn1ccnc1CN1CCCN(C(=O)c2ccnn2C)CC1", "Percent Effect": 4.118}
{"compound": "Cc1noc(C)c1-c1ccc(C2CCCN2C(=O)c2ccncn2)nc1", "stereo": "stereo not given", "Percent Effect": 1.493}
{"compound": "O=C(NCc1cccnc1)N1CCSCC1CCO", "stereo": "stereo not given", "Percent Effect": 2.941}
{"compound": "O=S(=O)(NCCCn1cncn1)c1ccc2c(c1)CCC2", "Percent Effect": 6.957}
{"compound": "CCCN(CC(F)F)C(=O)CCc1c(C)nc2cc(O)nn2c1C", "Percent Effect": 10.05}
{"compound": "COCCC(=O)N1CCCC1c1nc(O)cc(C(C)C)n1", "stereo": "stereo not given", "Percent Effect": 2.985}
{"compound": "COCC(C)N(C)C(=O)c1nc(S(C)(=O)=O)n2ccccc12", "stereo": "stereo not given", "Percent Effect": 3.817}
{"compound": "O=C(NCC(O)c1cccs1)c1cccc(Cl)c1", "stereo": "stereo not given", "Percent Effect": 2.479}
{"compound": "O=C(O)c1ccc(CN2CCCC(Cc3ccn[nH]3)C2)cc1", "stereo": "stereo not given", "Percent Effect": 3.448}
{"compound": "O=C(NCc1cccs1)[C@@H]1CC[C@@H]2[C@@H](CCN2c2ncccn2)O1", "Percent Effect": 4.878}
{"compound": "O=C(CC1CC1)N1CCCn2nnc(CNc3ncccn3)c2C1", "Percent Effect": 2.222}
{"compound": "COCCCNC(=O)NCc1cccn1Cc1ccccc1C", "Percent Effect": 6.098}
{"compound": "CN(Cc1ccsc1)C(=O)c1ccc(C2CCCO2)s1", "stereo": "stereo not given", "Percent Effect": 9.211}
{"compound": "CN(C)C(=O)COCc1cncc2c1CCN(Cc1nccn1C)C2", "Percent Effect": 0}
{"compound": "CC(C)(C)OC(=O)N1CCC(C(=O)NCc2cc3ccccc3[nH]2)C1", "stereo": "stereo not given", "Percent Effect": 7.018}
{"compound": "Cc1csc([C@H]2C[C@@H]3CCN(Cc4cc(C)on4)C[C@H]3O2)n1", "Percent Effect": 8.84}

The first 3 entries again:

For COc1ccc(CN2CCN(c3ncc(Cl)cn3)CC2)cc1 the result was 2.469%.
For CCOCCCNc1nc(CS(=O)(=O)c2ccccc2)cs1 the result was 3.448%.
For COc1ccc(CCNC(=O)C(C)Nc2cc(C)ccc2C)cc1 (stereo not given) the result was 6.667%.